# Experimental data published in the supplement of paper PMC11438910.
# This is one part of the list. Most of these values are background signal.
# B1: 4-173.1 (protein)
# chain 1: QLQLQESGPGLVKPSETLSLTCAVSGASISSNYWSWIRQAPGKGLEWIGRISGSSGSTDYNPSLKSRVTISTDTSKNQFSLKLNSVTAADTAVYYCARVSYWGHYGDYWGQGVLVTVSS
# chain 2: QPVLTQPSSHSASPGAPARLTCTLSSGFSVGDFWIRWYQQKPGSPPRYLLYYHSDSDKHQGSGVPSRFSGSNDASANAGILHISGLQPEDEADYYCCTWHGNSKTQIFGAGTRLTVL
# What was measured:
# Experiment in all cases: fluorescence intensity of antibody binding to polysaccharide-coupled beads; higher = stronger binding
# [1] = target: pneumococcal polysaccharide Pn11F
# Method: (§1)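 Recombinant rhesus-murine chimeric IgG1 antibodies were tested against antigen-coupled MagPlex beads in a 96-plex Luminex direct immunoassay (dLIA). The beads carried pneumococcal capsular polysaccharides of 93 serotypes plus C-polysaccharides. Antibody was added at 0.1–12,500 ng/mL for 1 h, then PE anti-mouse IgG, and net MFI was read on a Bio-Plex 3D. Only the rhesus variable regions are printed; constant regions are murine IgG1/kappa/lambda, and the signal peptide is MGWSCIILFLVATATGVHS.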
# [2] = target: pneumococcal polysaccharide Pn12A
# Method: as §1
# [3] = target: pneumococcal polysaccharide Pn12B
# Method: as §1
# [4] = target: pneumococcal polysaccharide Pn12F
# Method: as §1
# [5] = target: pneumococcal polysaccharide Pn13
# Method: as §1
# [6] = target: pneumococcal polysaccharide Pn14
# Method: as §1
# [7] = target: pneumococcal polysaccharide Pn15A
# Method: as §1
# [8] = target: pneumococcal polysaccharide Pn15B
# Method: as §1
# [9] = target: pneumococcal polysaccharide Pn15C
# Method: as §1
# [10] = target: pneumococcal polysaccharide Pn15F
# Method: as §1
# [11] = target: pneumococcal polysaccharide Pn16A
# Method: as §1
# [12] = target: pneumococcal polysaccharide Pn16F
# Method: as §1
# [13] = target: pneumococcal polysaccharide Pn17A
# Method: as §1
# [14] = target: pneumococcal polysaccharide Pn17F
# Method: as §1
# [15] = target: pneumococcal polysaccharide Pn18A
# Method: as §1
# [16] = target: pneumococcal polysaccharide Pn18B
# Method: as §1
# [17] = target: pneumococcal polysaccharide Pn18C
# Method: as §1
# [18] = target: pneumococcal polysaccharide Pn18F
# Method: as §1
# [19] = target: pneumococcal polysaccharide Pn19A
# Method: as §1
# [20] = target: pneumococcal polysaccharide Pn19B
# Method: as §1
# [21] = target: pneumococcal polysaccharide Pn19C
# Method: as §1
# [22] = target: pneumococcal polysaccharide Pn19F
# Method: as §1
# [23] = target: pneumococcal polysaccharide Pn2
# Method: as §1
# [24] = antibody concentration 2.8593 ng/mL
# [25] = antibody concentration 15.2894 ng/mL
# [26] = antibody concentration 81.7561 ng/mL
# [27] = antibody concentration 437.17 ng/mL
# [28] = antibody concentration 2337.65 ng/mL
# [29] = antibody concentration 12500 ng/mL
# [30] = antibody concentration 0.1 ng/mL
# [31] = antibody concentration 0.534724 ng/mL
binder,measurement,setting,value
B1,fluorescence intensity,[1]; [24],16 MFI
same,fluorescence intensity,[1]; [25],14.5 MFI
same,fluorescence intensity,[1]; [26],15 MFI
same,fluorescence intensity,[1]; [27],13.2 MFI
same,fluorescence intensity,[1]; [28],15.2 MFI
same,fluorescence intensity,[1]; [29],21.5 MFI
same,fluorescence intensity,[2]; [30],18 MFI
same,fluorescence intensity,[2]; [31],14.2 MFI
same,fluorescence intensity,[2]; [24],17.5 MFI
same,fluorescence intensity,[2]; [25],16.5 MFI
same,fluorescence intensity,[2]; [26],16 MFI
same,fluorescence intensity,[2]; [27],17.5 MFI
same,fluorescence intensity,[2]; [28],19 MFI
same,fluorescence intensity,[2]; [29],25.5 MFI
same,fluorescence intensity,[3]; [30],17.2 MFI
same,fluorescence intensity,[3]; [31],15 MFI
same,fluorescence intensity,[3]; [24],16.5 MFI
same,fluorescence intensity,[3]; [25],17.5 MFI
same,fluorescence intensity,[3]; [26],16 MFI
same,fluorescence intensity,[3]; [27],17 MFI
same,fluorescence intensity,[3]; [28],18.5 MFI
same,fluorescence intensity,[3]; [29],25 MFI
same,fluorescence intensity,[4]; [30],19.8 MFI
same,fluorescence intensity,[4]; [31],19.2 MFI
same,fluorescence intensity,[4]; [24],20.5 MFI
same,fluorescence intensity,[4]; [25],19 MFI
same,fluorescence intensity,[4]; [26],19.5 MFI
same,fluorescence intensity,[4]; [27],18.2 MFI
same,fluorescence intensity,[4]; [28],22.2 MFI
same,fluorescence intensity,[4]; [29],28.8 MFI
same,fluorescence intensity,[5]; [30],19 MFI
same,fluorescence intensity,[5]; [31],19.5 MFI
same,fluorescence intensity,[5]; [24],21 MFI
same,fluorescence intensity,[5]; [25],19.5 MFI
same,fluorescence intensity,[5]; [26],19 MFI
same,fluorescence intensity,[5]; [27],20 MFI
same,fluorescence intensity,[5]; [28],20.8 MFI
same,fluorescence intensity,[5]; [29],23.5 MFI
same,fluorescence intensity,[6]; [30],14.5 MFI
same,fluorescence intensity,[6]; [31],15.5 MFI
same,fluorescence intensity,[6]; [24],15.5 MFI
same,fluorescence intensity,[6]; [25],15.5 MFI
same,fluorescence intensity,[6]; [26],16 MFI
same,fluorescence intensity,[6]; [27],17 MFI
same,fluorescence intensity,[6]; [28],22.2 MFI
same,fluorescence intensity,[6]; [29],47.8 MFI
same,fluorescence intensity,[7]; [30],13.5 MFI
same,fluorescence intensity,[7]; [31],14 MFI
same,fluorescence intensity,[7]; [24],13.5 MFI
same,fluorescence intensity,[7]; [25],13.5 MFI
same,fluorescence intensity,[7]; [26],12.5 MFI
same,fluorescence intensity,[7]; [27],12.5 MFI
same,fluorescence intensity,[7]; [28],14.5 MFI
same,fluorescence intensity,[7]; [29],15 MFI
same,fluorescence intensity,[8]; [30],19 MFI
same,fluorescence intensity,[8]; [31],19 MFI
same,fluorescence intensity,[8]; [24],17.5 MFI
same,fluorescence intensity,[8]; [25],17.8 MFI
same,fluorescence intensity,[8]; [26],20 MFI
same,fluorescence intensity,[8]; [27],19.5 MFI
same,fluorescence intensity,[8]; [28],23.5 MFI
same,fluorescence intensity,[8]; [29],27 MFI
same,fluorescence intensity,[9]; [30],17.8 MFI
same,fluorescence intensity,[9]; [31],17.5 MFI
same,fluorescence intensity,[9]; [24],16.5 MFI
same,fluorescence intensity,[9]; [25],17 MFI
same,fluorescence intensity,[9]; [26],18.2 MFI
same,fluorescence intensity,[9]; [27],19.2 MFI
same,fluorescence intensity,[9]; [28],19.5 MFI
same,fluorescence intensity,[9]; [29],24.5 MFI
same,fluorescence intensity,[10]; [30],18.5 MFI
same,fluorescence intensity,[10]; [31],18.5 MFI
same,fluorescence intensity,[10]; [24],18.8 MFI
same,fluorescence intensity,[10]; [25],17.5 MFI
same,fluorescence intensity,[10]; [26],17.8 MFI
same,fluorescence intensity,[10]; [27],18.5 MFI
same,fluorescence intensity,[10]; [28],19.2 MFI
same,fluorescence intensity,[10]; [29],24 MFI
same,fluorescence intensity,[11]; [30],16 MFI
same,fluorescence intensity,[11]; [31],14 MFI
same,fluorescence intensity,[11]; [24],15 MFI
same,fluorescence intensity,[11]; [25],16 MFI
same,fluorescence intensity,[11]; [26],14 MFI
same,fluorescence intensity,[11]; [27],16.8 MFI
same,fluorescence intensity,[11]; [28],15 MFI
same,fluorescence intensity,[11]; [29],21 MFI
same,fluorescence intensity,[12]; [30],25.5 MFI
same,fluorescence intensity,[12]; [31],26 MFI
same,fluorescence intensity,[12]; [24],25 MFI
same,fluorescence intensity,[12]; [25],25.8 MFI
same,fluorescence intensity,[12]; [26],24.5 MFI
same,fluorescence intensity,[12]; [27],26 MFI
same,fluorescence intensity,[12]; [28],27.2 MFI
same,fluorescence intensity,[12]; [29],35.5 MFI
same,fluorescence intensity,[13]; [30],21.5 MFI
same,fluorescence intensity,[13]; [31],20.2 MFI
same,fluorescence intensity,[13]; [24],20 MFI
same,fluorescence intensity,[13]; [25],21.5 MFI
same,fluorescence intensity,[13]; [26],21.5 MFI
same,fluorescence intensity,[13]; [27],22.5 MFI
same,fluorescence intensity,[13]; [28],22.5 MFI
same,fluorescence intensity,[13]; [29],24 MFI
same,fluorescence intensity,[14]; [30],25.5 MFI
same,fluorescence intensity,[14]; [31],27 MFI
same,fluorescence intensity,[14]; [24],23.2 MFI
same,fluorescence intensity,[14]; [25],27.8 MFI
same,fluorescence intensity,[14]; [26],28 MFI
same,fluorescence intensity,[14]; [27],25 MFI
same,fluorescence intensity,[14]; [28],27.5 MFI
same,fluorescence intensity,[14]; [29],30 MFI
same,fluorescence intensity,[15]; [30],24 MFI
same,fluorescence intensity,[15]; [31],25 MFI
same,fluorescence intensity,[15]; [24],26.2 MFI
same,fluorescence intensity,[15]; [25],24 MFI
same,fluorescence intensity,[15]; [26],25 MFI
same,fluorescence intensity,[15]; [27],25 MFI
same,fluorescence intensity,[15]; [28],25.8 MFI
same,fluorescence intensity,[15]; [29],29 MFI
same,fluorescence intensity,[16]; [30],29.5 MFI
same,fluorescence intensity,[16]; [31],31 MFI
same,fluorescence intensity,[16]; [24],33.8 MFI
same,fluorescence intensity,[16]; [25],31 MFI
same,fluorescence intensity,[16]; [26],31 MFI
same,fluorescence intensity,[16]; [27],32.2 MFI
same,fluorescence intensity,[16]; [28],31.5 MFI
same,fluorescence intensity,[16]; [29],38 MFI
same,fluorescence intensity,[17]; [30],20 MFI
same,fluorescence intensity,[17]; [31],19 MFI
same,fluorescence intensity,[17]; [24],18 MFI
same,fluorescence intensity,[17]; [25],18 MFI
same,fluorescence intensity,[17]; [26],18 MFI
same,fluorescence intensity,[17]; [27],21 MFI
same,fluorescence intensity,[17]; [28],20 MFI
same,fluorescence intensity,[17]; [29],28.2 MFI
same,fluorescence intensity,[18]; [30],24 MFI
same,fluorescence intensity,[18]; [31],23.5 MFI
same,fluorescence intensity,[18]; [24],22 MFI
same,fluorescence intensity,[18]; [25],22.5 MFI
same,fluorescence intensity,[18]; [26],23 MFI
same,fluorescence intensity,[18]; [27],24.8 MFI
same,fluorescence intensity,[18]; [28],25.5 MFI
same,fluorescence intensity,[18]; [29],29.5 MFI
same,fluorescence intensity,[19]; [30],19.5 MFI
same,fluorescence intensity,[19]; [31],17.8 MFI
same,fluorescence intensity,[19]; [24],20 MFI
same,fluorescence intensity,[19]; [25],21 MFI
same,fluorescence intensity,[19]; [26],18 MFI
same,fluorescence intensity,[19]; [27],19 MFI
same,fluorescence intensity,[19]; [28],22 MFI
same,fluorescence intensity,[19]; [29],24.5 MFI
same,fluorescence intensity,[20]; [30],33.5 MFI
same,fluorescence intensity,[20]; [31],32 MFI
same,fluorescence intensity,[20]; [24],29 MFI
same,fluorescence intensity,[20]; [25],30 MFI
same,fluorescence intensity,[20]; [26],29 MFI
same,fluorescence intensity,[20]; [27],30.5 MFI
same,fluorescence intensity,[20]; [28],34 MFI
same,fluorescence intensity,[20]; [29],68.5 MFI
same,fluorescence intensity,[21]; [30],27.5 MFI
same,fluorescence intensity,[21]; [31],26.2 MFI
same,fluorescence intensity,[21]; [24],29 MFI
same,fluorescence intensity,[21]; [25],29 MFI
same,fluorescence intensity,[21]; [26],25.8 MFI
same,fluorescence intensity,[21]; [27],27.5 MFI
same,fluorescence intensity,[21]; [28],29 MFI
same,fluorescence intensity,[21]; [29],50 MFI
same,fluorescence intensity,[22]; [30],26 MFI
same,fluorescence intensity,[22]; [31],24.5 MFI
same,fluorescence intensity,[22]; [24],25.5 MFI
same,fluorescence intensity,[22]; [25],28.5 MFI
same,fluorescence intensity,[22]; [26],26.2 MFI
same,fluorescence intensity,[22]; [27],27.8 MFI
same,fluorescence intensity,[22]; [28],29.5 MFI
same,fluorescence intensity,[22]; [29],37.8 MFI
same,fluorescence intensity,[23]; [30],19 MFI
same,fluorescence intensity,[23]; [31],20 MFI
same,fluorescence intensity,[23]; [24],22.5 MFI
same,fluorescence intensity,[23]; [25],19.2 MFI
same,fluorescence intensity,[23]; [26],19.8 MFI
same,fluorescence intensity,[23]; [27],21 MFI

# Seven entries from above, reformatted.
binder	measurement	setting	value
B1	fluorescence intensity	[10]; [25]	17.5 MFI
same	fluorescence intensity	[10]; [26]	17.8 MFI
same	fluorescence intensity	[10]; [27]	18.5 MFI
same	fluorescence intensity	[10]; [28]	19.2 MFI
same	fluorescence intensity	[10]; [29]	24 MFI
same	fluorescence intensity	[11]; [30]	16 MFI
same	fluorescence intensity	[11]; [31]	14 MFI

# Rewritten as tab-separated lines: entries from further up.
binder	measurement	setting	value
B1	fluorescence intensity	[1]; [25]	14.5 MFI
same	fluorescence intensity	[9]; [26]	18.2 MFI
same	fluorescence intensity	[12]; [29]	35.5 MFI
